Test results taken from patent US20150210768A1, “Methods and Compounds for Preventing, Treating and Diagnosing an Inflammatory Condition” (Westfaelische Wilhelms-Universitaet Muenster, priority 2012, published 2015).
These are yes or no findings as the source states them, for the method shown. In cells and extracts the contact can be indirect. These calls come from enrichment with a bait or labelling near it, and not all partners need be listed.

Amino acid sequences for entries named in this document (tags omitted). A change or cut given only in a name is not applied to a line headed by its entry.
UniProt O00206: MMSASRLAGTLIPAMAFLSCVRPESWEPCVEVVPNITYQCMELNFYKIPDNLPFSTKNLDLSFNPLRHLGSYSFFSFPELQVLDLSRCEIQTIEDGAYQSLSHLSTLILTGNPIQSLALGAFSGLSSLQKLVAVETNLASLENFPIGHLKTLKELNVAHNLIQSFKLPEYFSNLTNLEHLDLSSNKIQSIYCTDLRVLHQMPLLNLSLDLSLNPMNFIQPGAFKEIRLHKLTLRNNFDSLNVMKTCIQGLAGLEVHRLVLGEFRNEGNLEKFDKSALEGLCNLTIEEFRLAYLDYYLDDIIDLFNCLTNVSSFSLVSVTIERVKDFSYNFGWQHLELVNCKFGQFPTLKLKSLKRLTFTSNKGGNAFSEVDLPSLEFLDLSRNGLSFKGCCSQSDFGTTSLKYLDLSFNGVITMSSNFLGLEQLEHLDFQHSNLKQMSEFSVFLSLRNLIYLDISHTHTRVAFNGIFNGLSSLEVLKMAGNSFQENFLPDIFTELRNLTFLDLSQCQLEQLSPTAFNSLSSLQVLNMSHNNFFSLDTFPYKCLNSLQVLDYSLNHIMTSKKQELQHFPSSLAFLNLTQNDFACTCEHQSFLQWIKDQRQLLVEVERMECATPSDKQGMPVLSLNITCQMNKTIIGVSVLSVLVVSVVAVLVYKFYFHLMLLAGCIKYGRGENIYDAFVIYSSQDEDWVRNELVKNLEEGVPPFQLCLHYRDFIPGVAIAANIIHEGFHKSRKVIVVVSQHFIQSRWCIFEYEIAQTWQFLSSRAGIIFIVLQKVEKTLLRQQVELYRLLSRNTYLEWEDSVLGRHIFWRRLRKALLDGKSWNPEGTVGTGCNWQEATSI

Target: T1, his-tagged rhTLR4/MD2 (human, UniProt O00206 24-631; Q9Y6Y9 19-160)
T1 construct: Bought recombinant human complex (carrier free, R&D SYSTEMS), his-tagged; In the pull-down it was captured by anti-His antibody on Protein A/G agarose; in the ELISA it was coated on the plate; also called TLR4/MD2 complex; TRLR4/MD2
Assay: pull-down on beads carrying TLR4/MD2, MALDI-TOF mass spectrometry of the eluate
Protocol: Anti-His antibody (5 μL, 0.5 mg/mL, Invivogen) and his-tagged rhTLR4/MD2 (5 μL, 1 mg/mL, carrier free, R&D SYSTEMS) were mixed and coupled to Protein A/G Agarose (50 μl, Pierce, Thermo Scientific). Trypsin digested peptides of S100A9 were added for 3 h at 4° C. in the presence of 1 mM Calcium. After washing of the beads in HBS/1 mM Ca-buffer for three times bound peptidic fragments were eluted by addition of 10 mM TRIS/2 mM EDTA-buffer and analysed by ESI-QIT- and MALDI-TOF-mass spectrometry. Identical experiments were performed to analyze the binding of the chemical synthesized peptides of S100A9 (aa63-79), S100A8 (aa55-71) and the corresponding control peptides aa63-79 AS and aa55-71 A3.

binding | Binder
binds | MEDLDTNADKQLSFEEF [synthetic peptide corresponding to amino acid positions 63-79 of S100A9 (…)]
binds | FKELDINTDGAVNFQEF [synthetic peptide having the amino acid sequence of positions 55-71 of human S100A8 (…)]
